In assay [1] the target is DnaK2 from Synechocystis sp. PCC6803, His-tagged (Synechocystis sp. PCC6803) (UniProt P22358). Put plainly: pull-down; His-tagged DnaK2 or His-tagged DnaJ Sll1384 as bait on nickel resin (cOmplete His-Tag Purification Resin); 50 µg of each protein in 150 µl, 30 min; eluted with 400 mM imidazole; dot blot; both purified.
Assay [2] deals with RbcL, endogenous in Synechocystis sp. PCC 6803 (Synechocystis sp. PCC 6803 (endogenous in Synechocystis sp. PCC 6803)) (UniProt P54205). Put plainly: native gel or EMSA; soluble fraction of Synechocystis sp. PCC 6803 (wild type, Δraf1 and Δsll1384 strains); native PAGE, western blots with anti-RbcL, anti-DnaK, anti-DnaJ, anti-Raf1.

Sequences of proteins named here, by UniProt entry; tags and fusion partners are left off. A change or cut given only in a name is not applied to a line headed by its entry.
UniProt P22358: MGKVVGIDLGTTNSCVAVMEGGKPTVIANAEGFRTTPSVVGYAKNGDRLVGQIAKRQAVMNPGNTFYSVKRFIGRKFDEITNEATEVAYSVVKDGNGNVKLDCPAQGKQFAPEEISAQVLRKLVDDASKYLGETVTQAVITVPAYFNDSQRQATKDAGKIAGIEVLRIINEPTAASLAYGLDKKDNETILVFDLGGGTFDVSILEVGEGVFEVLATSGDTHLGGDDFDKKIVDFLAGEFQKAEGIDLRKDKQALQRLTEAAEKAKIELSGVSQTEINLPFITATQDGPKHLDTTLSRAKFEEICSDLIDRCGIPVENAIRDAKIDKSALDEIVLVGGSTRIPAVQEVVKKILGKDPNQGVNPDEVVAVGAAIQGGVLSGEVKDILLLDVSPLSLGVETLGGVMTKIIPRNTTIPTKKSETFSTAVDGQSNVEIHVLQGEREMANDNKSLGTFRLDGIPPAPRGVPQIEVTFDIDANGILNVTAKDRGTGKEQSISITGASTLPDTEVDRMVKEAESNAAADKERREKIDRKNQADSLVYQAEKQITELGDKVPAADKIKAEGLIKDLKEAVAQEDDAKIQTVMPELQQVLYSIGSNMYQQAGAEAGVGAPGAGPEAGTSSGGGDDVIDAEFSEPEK
UniProt P54205: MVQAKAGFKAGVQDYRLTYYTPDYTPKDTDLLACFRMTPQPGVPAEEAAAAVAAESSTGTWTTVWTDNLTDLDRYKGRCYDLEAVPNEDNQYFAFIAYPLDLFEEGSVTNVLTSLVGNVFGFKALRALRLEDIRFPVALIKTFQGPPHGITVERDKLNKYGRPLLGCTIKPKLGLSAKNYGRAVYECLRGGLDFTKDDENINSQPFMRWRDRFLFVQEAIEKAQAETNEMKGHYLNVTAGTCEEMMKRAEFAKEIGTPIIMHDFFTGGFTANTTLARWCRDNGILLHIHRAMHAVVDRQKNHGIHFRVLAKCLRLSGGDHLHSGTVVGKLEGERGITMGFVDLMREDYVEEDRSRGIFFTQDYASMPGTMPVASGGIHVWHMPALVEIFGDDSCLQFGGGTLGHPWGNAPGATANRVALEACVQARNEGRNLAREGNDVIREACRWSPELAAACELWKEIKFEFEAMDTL
UniProt P74157: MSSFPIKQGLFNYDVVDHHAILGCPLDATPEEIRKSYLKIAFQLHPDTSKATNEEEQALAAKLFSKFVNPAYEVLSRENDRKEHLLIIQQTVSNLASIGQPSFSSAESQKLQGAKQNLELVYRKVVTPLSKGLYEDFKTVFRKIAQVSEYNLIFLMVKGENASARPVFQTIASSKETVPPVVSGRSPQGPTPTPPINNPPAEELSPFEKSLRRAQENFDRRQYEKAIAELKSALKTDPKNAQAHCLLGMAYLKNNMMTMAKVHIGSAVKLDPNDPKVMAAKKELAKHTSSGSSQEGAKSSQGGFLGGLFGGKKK

No constants are given. Whether binding was seen depends on the method and setting. Binding calls can cover weak binding; strength is not graded here.

Regarding “DnaJ Sll1384 without a His-tag (from UniProt P74157)”, the binding entry in assay [1] is reported as “binds”.
With “DnaJ Sll1384, endogenous in Synechocystis sp. PCC 6803 (from UniProt P74157)”, the binding entry in assay [2] is recorded as “binds”.

The values are drawn from PMC9948308, “DnaK and DnaJ proteins from Hsp70/40 family are involved in Rubisco biosynthesis in Synechocystis sp. PCC6803 and sustain the enzyme assembly in a heterologous system” (BMC Plant Biology, 2023).
